# Assay results taken from article PMC8855804.
# Results are given in words; binding and its absence hold for the method and conditions named. For part of these data: In cells and extracts the contact can be indirect. Some results given as binding are weak or reduced against the parent protein; the word gives no strength.
# T1: ADAM8 (metalloproteinase-disintegrin 8), endogenous (human (endogenous in hPMN and HL-60)) (UniProt P78325)
# T1 sequence: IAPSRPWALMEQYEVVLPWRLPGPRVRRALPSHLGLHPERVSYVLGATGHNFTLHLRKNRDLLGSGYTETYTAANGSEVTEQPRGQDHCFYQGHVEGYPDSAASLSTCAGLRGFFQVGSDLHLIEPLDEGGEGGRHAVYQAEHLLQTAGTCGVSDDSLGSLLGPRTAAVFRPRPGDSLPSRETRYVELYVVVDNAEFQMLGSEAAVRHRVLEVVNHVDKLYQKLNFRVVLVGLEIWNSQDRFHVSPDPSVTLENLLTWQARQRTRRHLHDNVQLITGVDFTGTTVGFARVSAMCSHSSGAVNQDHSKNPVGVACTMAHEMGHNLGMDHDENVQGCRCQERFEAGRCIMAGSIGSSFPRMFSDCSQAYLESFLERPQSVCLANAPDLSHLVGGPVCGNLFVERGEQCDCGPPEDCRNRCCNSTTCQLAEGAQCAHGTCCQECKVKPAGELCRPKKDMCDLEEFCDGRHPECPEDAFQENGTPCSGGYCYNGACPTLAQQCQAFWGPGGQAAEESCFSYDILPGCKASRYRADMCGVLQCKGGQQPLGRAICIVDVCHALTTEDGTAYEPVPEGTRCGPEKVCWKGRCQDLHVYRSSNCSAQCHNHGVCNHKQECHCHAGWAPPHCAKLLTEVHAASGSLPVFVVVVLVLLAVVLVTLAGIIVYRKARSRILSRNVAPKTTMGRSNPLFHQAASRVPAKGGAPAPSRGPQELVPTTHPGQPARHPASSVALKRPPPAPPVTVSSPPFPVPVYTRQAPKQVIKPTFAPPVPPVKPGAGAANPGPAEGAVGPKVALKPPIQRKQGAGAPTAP
# T2: intracellular domain of human ADAM8 (human) (UniProt P78325)
# T2 sequence: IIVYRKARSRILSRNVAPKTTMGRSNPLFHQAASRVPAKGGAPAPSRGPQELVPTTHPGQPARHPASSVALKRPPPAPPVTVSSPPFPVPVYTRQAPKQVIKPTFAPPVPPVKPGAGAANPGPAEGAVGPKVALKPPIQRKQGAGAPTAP
# What was measured:
# [1] = target: T1, ADAM8 (metalloproteinase-disintegrin 8), endogenous (human (endogenous in hPMN and HL-60)); test: co-IP; HL-60 cells; polyclonal ADAM8 antibody coupled to magnetic beads, blot for Myo1f; controls: beads with control IgG, unconjugated beads
# [2] = target: T1, ADAM8 (metalloproteinase-disintegrin 8), endogenous (human (endogenous in hPMN and HL-60)); test: co-IP; activated human neutrophils (hPMN, stimulated with TNF-alpha); polyclonal ADAM8 antibody coupled to magnetic beads, blot for Myo1f; controls: beads with control IgG, unconjugated beads; also after preincubation with BK-1361 or control peptide, MAB1031, or a 2-aminoquinoline-based SH3 domain inhibitor
# [3] = target: T2, intracellular domain of human ADAM8 (human); test: two-hybrid; yeast two-hybrid screen, ADAM8 intracellular domain against the Matchmaker human leukocyte cDNA library; yeast strains HF7c and SFY; beta-galactosidase filter assay
binding [1],binding [2],binding [3],Binder
binds,binds,–,"Myosin1f, endogenous (protein, UniProt O00160 1-1098) MGSKERFHWQSHNVKQSGVDDMVLLPQITEDAIAANLRKRFMDDYIFTYIGSVLISVNPFKQMPYFTDREIDLYQGAAQYENPPHIYALTDNMYRNMLIDCENQCVIISGESGAGKTVAAKYIMGYISKVSGGGEKVQHVKDIILQSNPLLEAFGNAKTVRNNNSSRFGKYFEIQFSRGGEPDGGKISNFLLEKSRVVMQNENERNFHIYYQLLEGASQEQRQNLGLMTPDYYYYLNQSDTYQVDGTDDRSDFGETLSAMQVIGIPPSIQQLVLQLVAGILHLGNISFCEDGNYARVESVDLLAFPAYLLGIDSGRLQEKLTSRKMDSRWGGRSESINVTLNVEQAAYTRDALAKGLYARLFDFLVEAINRAMQKPQEEYSIGVLDIYGFEIFQKNGFEQFCINFVNEKLQQIFIELTLKAEQEEYVQEGIRWTPIQYFNNKVVCDLIENKLSPPGIMSVLDDVCATMHATGGGADQTLLQKLQAAVGTHEHFNSWSAGFVIHHYAGKVSYDVSGFCERNRDVLFSDLIELMQTSEQAFLRMLFPEKLDGDKKGRPSTAGSKIKKQANDLVATLMRCTPHYIRCIKPNETKRPRDWEENRVKHQVEYLGLKENIRVRRAGFAYRRQFAKFLQRYAILTPETWPRWRGDERQGVQHLLRAVNMEPDQYQMGSTKVFVKNPESLFLLEEVRERKFDGFARTIQKAWRRHVAVRKYEEMREEASNILLNKKERRRNSINRNFVGDYLGLEERPELRQFLGKRERVDFADSVTKYDRRFKPIKRDLILTPKCVYVIGREKVKKGPEKGQVCEVLKKKVDIQALRGVSLSTRQDDFFILQEDAADSFLESVFKTEFVSLLCKRFEEATRRPLPLTFSDTLQFRVKKEGWGGGGTRSVTFSRGFGDLAVLKVGGRTLTVSVGDGLPKSSKPTRKGMAKGKPRRSSQAPTRAAPAPPRGMDRNGVPPSARGGPLPLEIMSGGGTHRPPRGPPSTSLGASRRPRARPPSEHNTEFLNVPDQGMAGMQRKRSVGQRPVPGVGRPKPQPRTHGPRCRALYQYVGQDVDELSFNVNEVIEILMEDPSGWWKGRLHGQEGLFPGNYVEKI"
–,–,binds,"Myo1f clone BP19 (SH3 domain, aa 1032-1098) (domain or fragment, UniProt O00160 1032-1098) VGRPKPQPRTHGPRCRALYQYVGQDVDELSFNVNEVIEILMEDPSGWWKGRLHGQEGLFPGNYVEKI"
